# Test results: PubChem BioAssay AID504842 (National Center for Advancing Translational Sciences (NCATS), 2011)
# The campaign covered roughly 330,000 compounds. About 100 (0.03%) were called active. Inconclusive means that the source gave no clear call. Such entries were picked first, then a sample of the others. The call rests on the fitted dose curve; in most records, active means well fitted inhibition curve with a large enough effect; inconclusive means small, poorly fitted or top-dose-only effect; inactive means flat fitted curve, though single readings scatter. Where the call is inconclusive, the potency comes from a doubtful curve fit.
# Test system: Chaperonin Mm-Cpn (Methanococcus maripaludis)
# Test: Inhibitors of TCP-1 ring complex (TRiC) of Methanococcus maripaludis (MmCpn): qHTS; further: nearly all actives have a fitted effect of over 80% in size;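 on potency: enzyme at 25 nM with ATP substrate at 10 µM during the reaction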
# Conditions: purified Mm-Cpn ATPase, ADP Transcreener TR-FRET
# Excerpt: The eukaryotic chaperonin TRiC (for TCP-1 ring complex) is an essential and conserved chaperone required for the folding and activation of 10-15% of the proteins encoded by the human genome. […] The TRiC complex consist of two stacked 7-9 membered rings, each containing a central cavity. Substrates are folded within the cavity in an ATP-dependent manner. TRiC is a complex of eight different, essential proteins. As each of the genes encoding the eight subunits is essential for cell viability and no protocol has been developed to over-express this enzyme to high levels. That is why several groups studying the TRiC chaperonin have turned to the archaeal homolog of TRiC, Methanococcus maripaludis (Mm-CPN), and have used this enzyme as a model system for the study of the type II chaperonin family. Small molecule inhibitors of the Mm-CPN enzyme would be extremely useful to study the mechanism of chaperonin activity. Importantly, TRiC and Mm-CPN both require ATP hydrolysis for function. Furthermore, the ATP binding sites are highly conserved among these type II chaperonins. This provides us with an easy, well tested and straightforward assay to identify inhibitors of chaperonin activity. The Mm-CPN assay was developed in 1536-well plate format using the HTRF Transcreener ADP assay kit (Cisbio, Bedford, MA). This assay applied the time resolved fluorescence resonance energy transfer (TR-FRET) principle. ATP in the presence of Mm-CPN is converted to ADP + Pi. An antibody labeled with Eu3+-Cryptate specific and bound to ADP labeled with […] (d2) competes with the unlabeled ADP generated by Mm-CPN. The resulting TR-FRET signal is inversely proportional to the concentration of ADP in the sample. In this assay a reduction in TR-FRET signal is observed with ATP turnover. NIH Chemical Genomics Center [NCGC] NIH Molecular Libraries Probe Centers Network [MLPCN] MLPCN Grant: DA030554-01A1 Assay Submitter (PI): Judith Frydman, Stanford University
# Purified Mm-CPN was supplied by the laboratory of Dr. Judith Frydman. Protein samples were stored at -80C as single use aliquots. Protein was thawed in ambient temperature water bath and placed on ice once thawed. Buffer was prepared fresh day of screen. The buffer composition below was used to prepare the working solution of the Mm-CPN protein and ATP substrate. The buffer is comprised of 30 mM TRIS pH 7.4, 100mM KCl, 5mM MgCl2, and 1mM DTT. A final concentration of 25nM Mm-CPN and 10uM ATP per well were used in the screen. Instructions according to the manufacturer were followed for the ADP Transcreener kit. Used 1536 well Greiner white, medium binding (MB), solid bottom plates. Plates were read on the PerkinElmer EnVision plate reader using Excitation = 320 nm and Emission = […], 665 nm. Protocol- 1.Dispense 1.5ul per well of working [Mm-CPN] = 50nM (or 75 ng / well) 2.Spin plate at 1000 rpm for 30 seconds 3.23nl of compound transferred per well 4.Incubate at 37degC for 10 minutes 5.Dispense 1.5ul per well of working [ATP] = 20uM 6.Incubate at 37degC for 30 minutes 7.Dispense 3ul per well of Anti-ADP Cryptate / ADP-d2 mix (prepared as instructed by Cisbio) 8.Incubate at ambient for 30 minutes 9.Read using EnVision
# Potency means the concentration at half of the fitted maximal effect.
row,SMILES,Potency
1,CC1(C)Cc2c(cnn2-c2ccccc2)C(=O)/C1=N\NC(=O)c1ccccc1N,inactive
2,CSc1nc2ccccc2cc1/C=C(\C#N)c1cccc(Cl)c1,"inconclusive: 100 µM [inhibitor, single point]"
3,Cc1ccc(C(=O)C2CCN(CC(=O)NC3CCCCC3)CC2)cc1,"inconclusive: 28.2 µM [inhibitor, single point]"
4,Nc1ccccc1N1CCOCC1,"inconclusive: 25.1 µM [inhibitor, single point]"
5,C=CCn1c2ccccc2c2nnc(SCC(=O)O)nc21,inactive
6,CCOC(=O)c1sc(Nc2nc3ccc(OC)cc3s2)cc1C,"inconclusive: 447 µM [inhibitor, partial curve, poor fit]"
7,COc1ccc([N+](=O)[O-])cc1/C=N/NC(=O)/C(=C\c1cccs1)NC(=O)c1ccccc1,inactive
8,CCOc1cc(/C=C2/C(=O)ON=C2C)cc(Br)c1O,inactive
9,Cc1ccc(SC(=O)c2c([N+](=O)[O-])c(C)nn2C)cc1,inactive
10,Cc1cccc(-n2c(SCC(=O)N3CC(=O)Nc4ccccc43)nc3ccccc3c2=O)c1,"inconclusive: 158 µM [inhibitor, partial curve, poor fit]"
11,COc1ccc(N2CCN(C(=O)c3cc4c(s3)-c3ccccc3OC4)CC2)cc1,"inconclusive: 15.8 µM [inhibitor, single point]"
12,Cn1cc([N+](=O)[O-])c(C(=O)Nc2sc3c(c2C#N)CCC3)n1,"inconclusive: 15.8 µM [inhibitor, single point]"
13,COC(=O)/C(=C/c1cccnc1)NC(=O)c1ccccc1,"inconclusive: 14.1 µM [inhibitor, single point]"
14,O=C1/C(=C/C=C/c2ccco2)SC(=S)N1c1ccc(O)cc1,inactive
15,C(=C\c1ccco1)/C1=NN(c2ccccc2)C(c2ccco2)C1 (centres undefined),inactive
16,Cc1ccccc1S(=O)(=O)Nc1nc2ccccc2nc1N1CCOCC1,"inconclusive: 282 µM [inhibitor, partial curve, poor fit]"
17,COc1ccccc1NC(=O)Cn1cc(C(=O)C2CC2)c2ccccc21,"inconclusive: 100 µM [inhibitor, partial curve, poor fit]"
18,OC(c1ccc(Cl)cc1Cl)C(Cc1cccnc1)n1cncn1 (centres undefined),inactive
19,COc1ccc2nc(C)cc(N/N=C/c3cccc(OC)c3O)c2c1,inactive
20,S=C(NC1CCCC1)NN1CCOCC1,"inconclusive: 17.8 µM [inhibitor, single point]"
21,O=C(CN1C(=O)NC2(CCCCCC2)C1=O)c1ccc(Cl)s1,"inconclusive: 100 µM [inhibitor, partial curve, poor fit]"
22,N#Cc1nc(Cc2cccc3ccccc23)oc1N1CCN(c2ccccc2)CC1,inactive
23,COc1ccc(OC)c(NC(=O)CN2C(=O)NC3(CCOc4ccccc43)C2=O)c1 (centres undefined),"inconclusive: 100 µM [inhibitor, single point]"

row,SMILES,Potency
1,COCCOC(=O)c1c(C)oc2ccc(OC(=O)COc3c(F)c(F)c(F)c(F)c3F)cc12,"inconclusive: 12.6 µM [inhibitor, single point]"
2,O=C(Nc1nccs1)c1cc2sccc2n1Cc1ccc(F)cc1,"inconclusive: 56.2 µM [inhibitor, partial curve, poor fit]"
3,COC(=O)c1ccc(-c2nc(CN3CCC(C(=O)N4CCOCC4)CC3)c(C)o2)cc1,"inconclusive: 100 µM [inhibitor, single point]"
4,COc1cc(OC)cc(-c2c(-c3cccs3)c3cc(-c4ccc(OCc5ccccc5)cc4)ccc3n2C)c1,"inconclusive: 100 µM [inhibitor, partial curve, poor fit]"
5,Cc1onc(-c2c(F)cccc2Cl)c1C(=O)Nc1nnc(-c2ccccc2)s1,"inconclusive: 1580 µM [inhibitor, partial curve, poor fit]"
6,N=C1/C(=C\c2coc3ccc(O)cc3c2=O)C(=O)N=C2SC=CN12,"inconclusive: 100 µM [inhibitor, single point]"
7,COc1ccc(C(=O)NC(C)CCc2ccccc2)c(OC)c1 (centres undefined),"inconclusive: 100 µM [inhibitor, partial curve, poor fit]"
8,CC1=C(C(=O)Nc2nc3ccccc3s2)C(c2ccco2)C(C#N)=C(SCC(=O)NC2CCCCC2)N1 (centres undefined),"inconclusive: 79.4 µM [inhibitor, single point]"
9,O=C1CCC/C=C/C[C@@H](CC(=O)N(CCO)Cc2ccccc2)C(=O)NC[C@@H](c2ccccc2)O1,"inconclusive: 12.6 µM [inhibitor, single point]"
10,N#Cc1nc(COc2ccccc2)oc1N1CCN(Cc2ccccc2)CC1,inactive
11,COc1cc(OC)cc(-c2sc3ccc(OC)cc3c2C#CC(C)(C)O)c1,"inconclusive: 126 µM [inhibitor, partial curve, poor fit]"
12,COc1ccc2[nH]c(=O)c(COC(=O)c3cccs3)cc2c1,"inconclusive: 100 µM [inhibitor, single point]"
13,COc1ccccc1NC(=O)C1=C(C)Nc2ncnn2C1c1ccccc1C (centres undefined),"inconclusive: 31.6 µM [inhibitor, partial curve, poor fit]"
14,Cc1cc(C(=O)NCCC2=CCCCC2)no1,inactive
15,CCOc1ccc(C2C(C#N)=C(N)SC(N)=C2C#N)c(OCC)c1,"inconclusive: 100 µM [inhibitor, single point]"
16,C/C(=N\NC(=O)CCCNc1ccccc1)c1ccncc1,"inconclusive: 56.2 µM [inhibitor, single point]"
17,O=C(Nc1cccnc1)Nc1cccc(F)c1,inactive
18,COc1ccc(NC(=O)NNS(=O)(=O)c2cc(C)ccc2C)cc1OC,"inconclusive: 44.7 µM [inhibitor, single point]"
19,Cc1ccccc1COc1ccc(/C=N/NC(=O)c2nnn(-c3nonc3N)c2CN2CCC(C)CC2)cc1,"inconclusive: 89.1 µM [inhibitor, single point]"
20,O=C(COc1ccccc1)Nc1nc2c(s1)CCCC2,inactive
21,COc1ccc(S(=O)(=O)NC2CCCCC2)cc1C,"inconclusive: 28.2 µM [inhibitor, partial curve, poor fit]"
22,COc1ccc(CNC(=O)C[C@H]2C[C@H](C(=O)N3CCCCC3)[C@@]3(C)c4[nH]c5cc(-c6ccco6)ccc5c4CCN3C2=O)cc1OC,"inconclusive: 50.1 µM [inhibitor, single point]"
23,Cc1cccc(NC(=O)c2sc(Cl)nc2-c2ccccc2)c1,"inconclusive: 79.4 µM [inhibitor, partial curve]"

# Six of these compounds in another layout.
row	SMILES	Potency
18	COc1ccc(NC(=O)NNS(=O)(=O)c2cc(C)ccc2C)cc1OC	inconclusive: 44.7 µM [inhibitor, single point]
19	Cc1ccccc1COc1ccc(/C=N/NC(=O)c2nnn(-c3nonc3N)c2CN2CCC(C)CC2)cc1	inconclusive: 89.1 µM [inhibitor, single point]
20	O=C(COc1ccccc1)Nc1nc2c(s1)CCCC2	inactive
21	COc1ccc(S(=O)(=O)NC2CCCCC2)cc1C	inconclusive: 28.2 µM [inhibitor, partial curve, poor fit]
22	COc1ccc(CNC(=O)C[C@H]2C[C@H](C(=O)N3CCCCC3)[C@@]3(C)c4[nH]c5cc(-c6ccco6)ccc5c4CCN3C2=O)cc1OC	inconclusive: 50.1 µM [inhibitor, single point]
23	Cc1cccc(NC(=O)c2sc(Cl)nc2-c2ccccc2)c1	inconclusive: 79.4 µM [inhibitor, partial curve]

# More compounds follow:

row,SMILES,Potency
1,CCOc1ccc(/C(CCC(=O)O)=N/NC(=S)NC(C)C)cc1,"inconclusive: 100 µM [inhibitor, single point]"
2,CN1C(=CC=C2C=C(I)C(=O)C(I)=C2)C(C)(C)c2ccccc21,inactive
3,Cc1ccc(-c2cc3nn(-c4ccccc4)c(N)c3c(=O)o2)cc1,inactive
4,Nc1nccc(-c2cccs2)n1,inactive
5,CC(C)(C)Nc1nc(Nc2ccc([N+](=O)[O-])cc2)nc(NC(C)(C)C)n1,inactive
6,CNNC(=S)Nc1cccc(C(F)(F)F)c1,"inconclusive: 100 µM [inhibitor, single point]"
7,CCCn1cnc2c(c1=O)c1nc3ccccc3nc1n2CCc1ccccc1,"inconclusive: 89.1 µM [inhibitor, single point]"
8,Cc1ccc(-n2ncc3c(=O)n(CC(=O)NCc4ccco4)cnc32)cc1,"inconclusive: 50.1 µM [inhibitor, single point]"
9,COc1ccc(NC(=O)c2cccc(Oc3ccccc3)c2)cn1,inactive
10,Cc1nnc(NC(=O)Cc2ccc(OCc3c(C)noc3C)cc2)s1,"inconclusive: 25.1 µM [inhibitor, single point]"
11,Cc1ncoc1C(=O)Nc1ccccc1C(N)=O,"inconclusive: 10 µM [inhibitor, single point]"
12,Cc1ccc(CNC(=O)c2cc(-c3ccccc3)nn2Cc2cc(C)no2)cc1,"inconclusive: 100 µM [inhibitor, single point]"
13,CC(C)(C)c1nnc(NC(=O)CS(=O)(=O)Cc2ccccc2)s1,inactive
14,COc1cccc(N=Cc2ccc(O)cc2O)c1,inactive
15,COc1ccc(CC2=C(O)c3ccccc3C(=O)C2=O)cc1,inactive
16,COc1ccc(/C(O)=C2\C(=O)C(=O)N(c3cc(C)on3)C2c2ccccc2OC)cc1C (centres undefined),"inconclusive: 794 µM [inhibitor, partial curve, poor fit]"
17,COc1cccc(OC)c1C(=O)NC(=S)Nc1ccc2c(c1)Cc1ccccc1-2,"inconclusive: 79.4 µM [inhibitor, single point]"
18,Cc1cccc(CCNC(=O)c2cccc(N3CCCC3=O)c2)c1,"inconclusive: 11.2 µM [inhibitor, single point]"
19,CCC(C)n1c(C)nc2c(c1=O)c1nc3ccccc3nc1n2-c1ccc2c(c1)OCCO2 (centres undefined),"inconclusive: 44.7 µM [inhibitor, partial curve, poor fit]"
20,COc1ccc(-c2csc3ncnc(N4CCN(S(=O)(=O)c5cccs5)CC4)c23)cc1,"inconclusive: 79.4 µM [inhibitor, single point]"
21,O=C(O)C1CC=CCC1C(=O)N1CCN(c2nc(-c3ccccc3Cl)c3cc(Br)ccc3n2)CC1 (centres undefined),"inconclusive: 282 µM [inhibitor, partial curve, poor fit]"
22,CC1CCCCN1C(=O)c1ccc(S(=O)(=O)N2CCCCC2C)cc1 (centres undefined),"inconclusive: 56.2 µM [inhibitor, single point]"
23,Cc1cc(C(=O)Nc2sc3c(c2C#N)CCC(C(C)(C)C)C3)no1 (centres undefined),"inconclusive: 56.2 µM [inhibitor, single point]"
